Measurements as given in patent publication US20110201642A1, “Bioactive Compounds” (priority 2008, published 2011).
≈ marks a conversion by molar mass, not a printed value.

How the values were obtained:
[1] = system: HCT116 (ATCC CCL-247) human colon cancer cell line; experiment: MTT cytotoxic assay against HCT116 (96 h); assay type: cell-based; conditions: HCT-116, read-out: IC50 (ng/mL) HCT116
Description: (§1) The Compounds A1-A5 were assayed against three cell lines: murine leukemia, P388; human breast cancer, MCF7 (ATCC HTB-22); and human colon cancer, HCT116 (ATCC CCL-247).
(§2) Human breast cancer, MCF7 (ATCC HTB-22) and human colon cancer, HCT116 (ATCC CCL-247) cell lines were all maintained in RPMI 1640 (Sigma), supplemented with 10% Foetal Bovine Serum (FBS, PAA Laboratories). Cells of 80-85% confluence were harvested and plated onto 96-flat bottom well plates for experimental use. In all experiments, cells were incubated in a CO2 incubator at 37° C. with 5% CO2 overnight prior to treatment.
(§3) Compounds were tested against MCF7 and HCT116 and incubated for 96 h before cytotoxic assay using the MTT (3-(4,5-dimethylthiazole-2-yl)-2,5-diphenyltetrazolium bromide) assay according to Mosmann (J. Immunol Meth. 65 (1983) 55-63). Plates were read using an Elisa plate reader at 520 nm. Data generated was used to plot a dose response curve. Cytotoxic activity was expressed as the mean concentration of extract required to kill 50% of the cell population (IC50).

[2] = system: MCF7 (ATCC HTB-22) human breast cancer cell line; experiment: MTT cytotoxic assay against MCF7 (96 h); assay type: cell-based; conditions: read-out: IC50 (ng/mL) MCF7
Description: as §1, §2, §3

Structure (SMILES): CC/C(=C(\c1ccccc1)c1ccc(OCCN(C)C)cc1)c1ccccc1 [tamoxifen, reference compound]
- IC50 [1]: 3950 ng/mL (≈ 10.6 µM)
- IC50 [2]: 3860 ng/mL (≈ 10.4 µM)
